Binding data for three substances are collected here from paper PMC4351601.

These are yes or no findings as the source states them, for the method shown.

Test [1] concerns the target FraC mutein V8C/K69C, oxidised (engineered disulfide bond between the N-terminal and beta-core regions) (UniProt B9W5G6). Put plainly: SEC; FraC (50 µM) incubated with DOPC/SM (1:1) LUVs (lipid/protein 200:1) 30 min at room temperature, solubilised with 1% Triton X-100, Resource S in 3 mM LDAO, then Superdex 200 10/300 GL in 50 mM Tris, 200 mM NaCl, pH 7.4, 3 mM LDAO; both purified. In general terms: In gel filtration, larger molecules generally elute earlier.

Test [2] deals with FraC mutein V60E/W149A (UniProt B9W5G6). Described as above.
The target of test [3] is fragaceatoxin C (FraC), wild type (UniProt B9W5G6). Put plainly: crystal structure; water-soluble FraC without lipids or detergents; two crystal forms, 1.70 and 2.10 Å; both purified.
Test [4] shares this target. Briefly: SEC-MALS; elution peak of FraC incubated with DOPC vesicles; WTC-030S5 column, MALS/RI/UV, detergent LDAO; both purified.
Test [5] shares this target. Put plainly: crystal structure; FraC co-crystallised with the water-soluble lipid DHPC (30 or 50 mM); three crystal forms, 1.6 to 2.3 Å; both purified.
Test [6] shares this target. Briefly: condition: only after vesicles of SM alone or of DOPC alone; SEC; as a3 but with LUVs of SM alone or of DOPC alone; Superdex 200 10/300 GL in SEC buffer with 3 mM LDAO; both purified.

Take “FraC mutein V8C/K69C, oxidised (engineered disulfide bond between the N-terminal and beta-core regions) (from UniProt B9W5G6 1-179)”: the binding result in test [1] is recorded as “no binding”.
Regarding “FraC mutein V60E/W149A (from UniProt B9W5G6 1-179)”, the binding result in test [2] is “no binding”.
For the substance “fragaceatoxin C (FraC), wild type (from UniProt B9W5G6 1-179)”, the binding entry is “no binding (condition: without lipids or detergents)” in test [3], “no binding (condition: after vesicles of DOPC alone)” in test [4], “no binding (condition: with DHPC as the only lipid)” in test [5] and “no binding” in test [6].
